Test results taken from PMC12040169 (PLOS Biology, 2025).
The other results are listed elsewhere or left out.

The compounds below were run on T1, CTL2-GFP (C. trachomatis L2/434/Bu, GFP-expressing). Conditions: bulk GFP, single well; 28.5 h, 10 µM; inhibitor.
T1 construct: L2/434/Bu, GFP-expressing
Set-up: species or system HeLa; Intracellular C. trachomatis growth in HeLa cells, bulk GFP fluorescence relative to DMSO

| SMILES | % of control remaining |
| --- | --- |
| CC(=O)c1nnn(-c2cc(Cl)ccc2Cl)c1C [CBK085973] | 84.1204% |
| CCNC(=O)Nc1nc2cccnc2cc1-c1ccccc1 [CBK081239] | 121.627% |
| O=C(O)CCC(=O)Nc1ccc(NC(=O)c2ccccc2)c(Cl)c1 [CBK263478] | 100% |
| CSC(=S)n1c(C)nc2ccccc21 [CBK018539] | 106.12% |
| O=[N+]([O-])c1cc(F)ccc1Oc1cccc2c1CCCC2 [CBK002559] | 98.7259% |
| CN1CCN(c2nc(NCCNc3ccc([N+](=O)[O-])cc3)c3ccccc3n2)CC1 [CBK266949] | 81.2927% |
| COC(=O)C1=C(C)OC(n2cccc2)=C(C#N)C1c1cc(OC)c(O)c(OC)c1 (stereo not shown) [CBK293994] | 152.248% |
| CCCn1c(=S)[nH]c2cc(C(=O)NCCc3ccc(Cl)cc3)ccc2c1=O [CBK294445] | 135.701% |
| COc1ccc2c(c1)C1(CC(=O)N(Cc3ccccc3)C1=O)C(=O)N2CCCN1C(=O)c2ccccc2C1=O (stereo not shown) [CBK075501] | 173.118% |
| N[C@H]1C[C@H](c2nnc(Cn3ncc(N4CCCC4)cc3=O)n2C2CC2)C1 [CBK307039] | 98.2257% |
| CC(C(=O)Nc1ccc2oc(-c3ccccc3)nc2c1)(c1ccccc1)c1ccccc1 [CBK263928] | 130.449% |
| Cn1c(CCNC(=O)c2cccs2)nc2cc([N+](=O)[O-])ccc21 [CBK268511] | 145.189% |
| CC1(C)Cc2c(cnn2-c2ccccc2)C(NS(=O)(=O)C2CC2)C1 (stereo not shown) [CBK307351] | 124.139% |
| Cc1cc2c(o1)c1cnn(CC(=O)N3CCC(C)CC3)c(=O)c1n2C [CBK284236] | 134.554% |
| OCCNc1nc(Nc2ccc(Br)cc2)nc2ccccc12 [CBK266724C] | 12.0496% |
| COC(=O)N1CCC(C(=O)NC(c2ccccc2)c2ncccc2C)CC1 (stereo not shown) [CBK059885] | 88.7671% |
| O=C(NCCc1ccccc1)c1c(NC(=O)C2COc3ccccc3O2)sc2c1CCCC2 (stereo not shown) [CBK265522] | 100% |
| O=C(c1csc2c1CCCC2)N1CCC(O)(c2ccccn2)CC1 [CBK282397] | 98.4441% |
| CCCC(=O)Nc1ccccc1NC(=O)c1cccc([N+](=O)[O-])c1C [CBK267398] | 132.181% |
| CCN1CCN(Cc2cc(Cl)ccc2OCCCn2ccnc2)CC1 [CBK306990] | 124.92% |
| COc1ccc2c(c1)CCC(c1ccccc1)=C2c1ccc(OCC(O)CN)cc1 (stereo not shown) [CBK015723C] | 23.3131% |
| COc1cc2c(cc1NS(=O)(=O)N1CCCCC1)oc1ccccc12 [CBK268355] | 143.381% |
| Cc1cc(C(=O)NCCCN(C)C)ccc1[N+](=O)[O-] [CBK262467] | 105.393% |
| O=C(C1CN(C(=O)Cn2ncc(=O)c3ccccc32)c2ccccc2O1)N1CCCCC1 (stereo not shown) [CBK297115] | 130.1% |
| O=[N+]([O-])c1ccccc1S(=O)(=O)N1CCN(S(=O)(=O)Cc2ccccc2)CC1 [CBK264230] | 126.702% |

| SMILES | % of control remaining |
| --- | --- |
| COc1ccc(OC)c(NC(=O)c2cc(=O)[nH]c3ccccc23)c1 [CBK297521] | 127.488% |
| COc1ccccc1CC(C)NC(=O)c1cc(C2CC2)nn1C (stereo not shown) [CBK283290] | 104.17% |
| N#Cc1cccnc1SC(C(=O)O)c1ccccc1 (stereo not shown) [CBK286614] | 101.662% |
| COc1ccc(-c2nnc(S)n2/N=C\c2ccc(C(=O)O)cc2)cc1 [CBK264419] | 100% |
| Cc1cc(NC(=O)c2sc3nc4c(cc3c2N)N2CCC4CC2)no1 [CBK270217] | 116.265% |
| COc1ccc(CCC(=O)N2CCC(c3cccc(Cc4cccc(F)c4)n3)CC2)cc1 [CBK286212] | 100.001% |
| Cc1csc(C(Cc2ccsc2)NC(=O)c2cnn(C)c2C)n1 (stereo not shown) [CBK285148] | 112.893% |
| O=C(NCc1cn2ccccc2n1)c1ccc(C2SCCS2)cc1 [CBK295167] | 108.303% |
| CC(C)N1C(=O)[C@@H]2CN(C(=O)C3CCCC3)CCN2C1=O [CBK289612] | 108.315% |
| COc1cc(NC(=O)c2cc([N+](=O)[O-])ccc2N2CCOCC2)ccc1-c1cc2ccccc2oc1=O [CBK269128] | 151.431% |
| CCOC(=O)c1[nH]c2ccccc2c1NC(=O)Cc1c(Cl)cccc1Cl [CBK160132] | 117.092% |
| Cc1nnc(-c2cc(CCC(C)C)n(-c3cccc(C(=O)N4CCCCC4)c3)n2)o1 [CBK114689] | 110.54% |
| O=C(O)COCC(=O)N1CCN(C(c2ccccc2)c2ccccc2)CC1 [CBK232579] | 135.311% |
| COc1cc(Nc2cc(C)nc3ncnn23)ccc1N1CCCC1=O [CBK297725] | 155.449% |
| COc1ccc(CNC(=O)N(Cc2cccnc2)Cc2ccc3c(c2)OCO3)cc1OC [CBK159456] | 142.464% |
| CCNC(=O)NC[C@H]1C[C@@H]2CCN1C[C@@H]2c1cc(-c2ccccc2)nc(C)n1 [CBK289125] | 99.5879% |
| CCN(CC)C(=O)CN1CCC(Oc2cncc(OCc3cccnc3)n2)C1 (stereo not shown) [CBK084461] | 77.0129% |
| NS(=O)(=O)c1ccc(CNC(=O)c2cc(-c3cccnc3)nc3ccc(Br)cc23)cc1 [CBK267740] | 128.389% |
| CCOC(=O)C1CCN(Cc2nc(-c3ccc(OC)c(OC)c3)no2)CC1 [CBK268852] | 132.046% |
| CCOc1ccccc1-c1ccccc1NC(=O)c1ccc(-n2nc(C)cc2C)cc1 [CBK285845] | 68.6533% |
| Cc1cccc(-c2noc(CNC(=O)CSc3ccccc3)n2)c1 [CBK270209] | 100.833% |
| Cc1ccc(CN(Cc2c[nH]cn2)C2CC(C)(C)NC(C)(C)C2)o1 [CBK283175] | 114.5% |
| CS(=O)(=O)N1C[C@@H]2CCCCN(Cc3cccc(F)c3)[C@@H]2C1 [CBK285514] | 120.533% |
| O=C(NC[C@H]1CCCN(C(=O)c2cccs2)C1)c1ccco1 [CBK284261] | 164.6% |

Nothing new here: an excerpt of the list.

| SMILES | % of control remaining |
| --- | --- |
| Cc1cc(NC(=O)c2sc3nc4c(cc3c2N)N2CCC4CC2)no1 [CBK270217] | 116.265% |
| COc1ccc(CCC(=O)N2CCC(c3cccc(Cc4cccc(F)c4)n3)CC2)cc1 [CBK286212] | 100.001% |
